Source: the supplement of paper PMC12067093, “Discovery and optimisation of a covalent ligand for TRIM25 and its application to targeted protein ubiquitination” (Chemical Science, 2025)
The other results are listed elsewhere or left out.

Chains of the proteins cited; added tags and fusions are not shown. Lines headed by an entry give the natural chain unless they say otherwise; changes in a name come on top.
UniProt Q12968: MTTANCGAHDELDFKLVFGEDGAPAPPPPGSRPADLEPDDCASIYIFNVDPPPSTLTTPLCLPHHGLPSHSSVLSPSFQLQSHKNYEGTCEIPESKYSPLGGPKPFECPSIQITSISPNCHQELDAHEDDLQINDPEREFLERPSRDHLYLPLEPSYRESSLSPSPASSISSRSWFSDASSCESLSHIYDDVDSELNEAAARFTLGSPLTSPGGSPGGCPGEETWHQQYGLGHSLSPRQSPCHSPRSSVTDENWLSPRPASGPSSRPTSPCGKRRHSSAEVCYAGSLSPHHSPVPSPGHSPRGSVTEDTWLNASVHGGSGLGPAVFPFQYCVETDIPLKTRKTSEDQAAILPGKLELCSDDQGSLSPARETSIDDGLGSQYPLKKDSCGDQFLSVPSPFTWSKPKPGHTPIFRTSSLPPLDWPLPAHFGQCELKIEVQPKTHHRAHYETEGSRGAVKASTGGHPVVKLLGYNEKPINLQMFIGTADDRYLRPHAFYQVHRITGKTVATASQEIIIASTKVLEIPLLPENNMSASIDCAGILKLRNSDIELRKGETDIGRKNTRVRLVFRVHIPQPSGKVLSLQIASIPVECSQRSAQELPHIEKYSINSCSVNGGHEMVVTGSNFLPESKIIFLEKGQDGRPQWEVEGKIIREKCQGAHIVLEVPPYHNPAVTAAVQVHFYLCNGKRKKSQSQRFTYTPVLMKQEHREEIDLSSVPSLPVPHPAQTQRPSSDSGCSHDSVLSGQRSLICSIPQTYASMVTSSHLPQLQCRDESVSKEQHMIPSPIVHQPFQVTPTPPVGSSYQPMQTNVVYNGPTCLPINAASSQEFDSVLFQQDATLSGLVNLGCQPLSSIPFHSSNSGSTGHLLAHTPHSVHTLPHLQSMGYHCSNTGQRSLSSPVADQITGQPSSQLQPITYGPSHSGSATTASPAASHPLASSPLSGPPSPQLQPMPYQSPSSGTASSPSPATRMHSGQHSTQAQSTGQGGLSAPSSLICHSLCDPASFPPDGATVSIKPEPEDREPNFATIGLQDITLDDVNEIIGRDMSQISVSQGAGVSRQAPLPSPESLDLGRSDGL
UniProt Q9P032: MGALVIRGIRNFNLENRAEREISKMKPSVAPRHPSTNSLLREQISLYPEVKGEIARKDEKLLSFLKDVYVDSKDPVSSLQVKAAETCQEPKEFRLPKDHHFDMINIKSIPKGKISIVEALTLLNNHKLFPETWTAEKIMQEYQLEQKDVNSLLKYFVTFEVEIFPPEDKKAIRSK
UniProt Q9NX24: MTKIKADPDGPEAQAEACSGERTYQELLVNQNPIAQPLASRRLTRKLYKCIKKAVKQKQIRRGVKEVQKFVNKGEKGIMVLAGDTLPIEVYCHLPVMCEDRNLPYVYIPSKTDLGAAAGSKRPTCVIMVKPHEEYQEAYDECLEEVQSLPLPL
UniProt Q9Y697: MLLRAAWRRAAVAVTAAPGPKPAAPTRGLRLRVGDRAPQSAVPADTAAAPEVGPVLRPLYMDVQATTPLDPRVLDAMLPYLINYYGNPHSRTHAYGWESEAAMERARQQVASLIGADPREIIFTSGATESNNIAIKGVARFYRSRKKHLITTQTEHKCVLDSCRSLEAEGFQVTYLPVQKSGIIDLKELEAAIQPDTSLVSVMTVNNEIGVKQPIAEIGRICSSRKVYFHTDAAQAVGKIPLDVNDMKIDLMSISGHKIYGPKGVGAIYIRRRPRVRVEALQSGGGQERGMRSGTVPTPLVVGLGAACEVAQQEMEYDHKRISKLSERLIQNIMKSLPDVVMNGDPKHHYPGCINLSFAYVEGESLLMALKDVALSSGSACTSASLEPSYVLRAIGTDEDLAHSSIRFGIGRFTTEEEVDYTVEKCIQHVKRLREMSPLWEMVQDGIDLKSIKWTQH
UniProt Q6KC79: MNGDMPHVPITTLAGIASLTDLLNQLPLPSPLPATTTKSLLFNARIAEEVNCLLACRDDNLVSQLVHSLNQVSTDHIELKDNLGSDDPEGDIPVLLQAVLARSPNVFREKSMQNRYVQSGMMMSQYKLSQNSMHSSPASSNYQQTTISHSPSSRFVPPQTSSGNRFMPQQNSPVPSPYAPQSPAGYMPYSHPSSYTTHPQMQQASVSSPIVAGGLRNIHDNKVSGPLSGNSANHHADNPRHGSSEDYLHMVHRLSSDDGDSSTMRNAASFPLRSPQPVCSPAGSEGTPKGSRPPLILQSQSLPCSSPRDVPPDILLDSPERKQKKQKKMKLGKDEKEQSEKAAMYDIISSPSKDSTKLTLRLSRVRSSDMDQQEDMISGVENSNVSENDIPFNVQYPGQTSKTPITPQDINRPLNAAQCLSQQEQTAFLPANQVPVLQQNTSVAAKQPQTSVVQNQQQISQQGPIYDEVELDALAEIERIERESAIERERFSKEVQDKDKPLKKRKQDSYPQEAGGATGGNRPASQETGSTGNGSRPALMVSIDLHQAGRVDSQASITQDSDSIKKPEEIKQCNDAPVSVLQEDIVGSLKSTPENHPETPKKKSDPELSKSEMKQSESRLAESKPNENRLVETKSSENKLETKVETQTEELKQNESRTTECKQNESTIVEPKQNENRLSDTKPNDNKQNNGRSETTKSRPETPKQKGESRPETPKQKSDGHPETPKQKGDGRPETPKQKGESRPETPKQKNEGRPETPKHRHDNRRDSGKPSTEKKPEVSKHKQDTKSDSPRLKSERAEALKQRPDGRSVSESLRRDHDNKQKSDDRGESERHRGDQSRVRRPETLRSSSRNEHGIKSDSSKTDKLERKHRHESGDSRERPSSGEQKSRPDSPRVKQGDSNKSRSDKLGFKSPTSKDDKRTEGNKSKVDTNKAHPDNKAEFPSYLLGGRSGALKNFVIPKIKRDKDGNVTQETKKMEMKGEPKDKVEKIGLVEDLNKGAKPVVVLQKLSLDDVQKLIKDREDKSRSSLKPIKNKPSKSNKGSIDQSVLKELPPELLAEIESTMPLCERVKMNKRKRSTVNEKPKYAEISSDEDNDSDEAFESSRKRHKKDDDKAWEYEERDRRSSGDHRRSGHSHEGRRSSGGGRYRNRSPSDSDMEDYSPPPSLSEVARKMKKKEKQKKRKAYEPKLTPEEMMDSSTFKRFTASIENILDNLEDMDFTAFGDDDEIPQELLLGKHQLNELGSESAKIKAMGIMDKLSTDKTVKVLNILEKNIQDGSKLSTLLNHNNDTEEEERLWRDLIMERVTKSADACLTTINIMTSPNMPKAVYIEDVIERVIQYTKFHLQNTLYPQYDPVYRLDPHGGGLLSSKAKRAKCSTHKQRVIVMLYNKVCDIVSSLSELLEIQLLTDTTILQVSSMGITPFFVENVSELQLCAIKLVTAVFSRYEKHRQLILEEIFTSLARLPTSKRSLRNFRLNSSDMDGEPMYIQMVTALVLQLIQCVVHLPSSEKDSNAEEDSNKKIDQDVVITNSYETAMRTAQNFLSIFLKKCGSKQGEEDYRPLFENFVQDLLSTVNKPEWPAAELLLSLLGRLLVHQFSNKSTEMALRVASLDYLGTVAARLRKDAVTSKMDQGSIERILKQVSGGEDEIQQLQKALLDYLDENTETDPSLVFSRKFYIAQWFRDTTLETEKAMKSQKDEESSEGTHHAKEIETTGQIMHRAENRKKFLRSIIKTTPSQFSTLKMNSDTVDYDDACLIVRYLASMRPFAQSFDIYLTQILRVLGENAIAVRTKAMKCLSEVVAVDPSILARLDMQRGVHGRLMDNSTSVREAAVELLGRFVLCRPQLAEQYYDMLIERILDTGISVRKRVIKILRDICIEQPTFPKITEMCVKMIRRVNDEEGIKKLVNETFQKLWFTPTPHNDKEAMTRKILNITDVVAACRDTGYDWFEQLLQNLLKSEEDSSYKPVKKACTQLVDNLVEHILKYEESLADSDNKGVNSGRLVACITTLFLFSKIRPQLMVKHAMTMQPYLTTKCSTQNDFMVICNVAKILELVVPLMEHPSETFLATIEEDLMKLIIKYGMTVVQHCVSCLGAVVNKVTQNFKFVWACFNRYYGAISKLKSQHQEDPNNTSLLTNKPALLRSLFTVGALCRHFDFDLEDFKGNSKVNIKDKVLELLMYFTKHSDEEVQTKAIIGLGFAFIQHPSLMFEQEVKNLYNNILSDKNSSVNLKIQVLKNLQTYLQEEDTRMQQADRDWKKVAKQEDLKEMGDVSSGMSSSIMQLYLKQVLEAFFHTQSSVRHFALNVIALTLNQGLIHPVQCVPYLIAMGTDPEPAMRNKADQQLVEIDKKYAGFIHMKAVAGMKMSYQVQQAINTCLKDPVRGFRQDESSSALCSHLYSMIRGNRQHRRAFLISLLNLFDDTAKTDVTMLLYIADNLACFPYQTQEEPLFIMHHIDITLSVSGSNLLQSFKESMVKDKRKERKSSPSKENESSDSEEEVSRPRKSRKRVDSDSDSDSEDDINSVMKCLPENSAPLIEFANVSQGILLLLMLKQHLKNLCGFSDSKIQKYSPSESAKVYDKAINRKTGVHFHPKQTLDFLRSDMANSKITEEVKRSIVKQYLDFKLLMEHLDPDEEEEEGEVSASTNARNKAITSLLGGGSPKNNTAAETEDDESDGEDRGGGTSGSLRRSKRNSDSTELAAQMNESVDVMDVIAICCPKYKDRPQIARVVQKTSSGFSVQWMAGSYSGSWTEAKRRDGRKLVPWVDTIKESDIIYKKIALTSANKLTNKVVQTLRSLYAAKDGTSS
UniProt Q8TD19: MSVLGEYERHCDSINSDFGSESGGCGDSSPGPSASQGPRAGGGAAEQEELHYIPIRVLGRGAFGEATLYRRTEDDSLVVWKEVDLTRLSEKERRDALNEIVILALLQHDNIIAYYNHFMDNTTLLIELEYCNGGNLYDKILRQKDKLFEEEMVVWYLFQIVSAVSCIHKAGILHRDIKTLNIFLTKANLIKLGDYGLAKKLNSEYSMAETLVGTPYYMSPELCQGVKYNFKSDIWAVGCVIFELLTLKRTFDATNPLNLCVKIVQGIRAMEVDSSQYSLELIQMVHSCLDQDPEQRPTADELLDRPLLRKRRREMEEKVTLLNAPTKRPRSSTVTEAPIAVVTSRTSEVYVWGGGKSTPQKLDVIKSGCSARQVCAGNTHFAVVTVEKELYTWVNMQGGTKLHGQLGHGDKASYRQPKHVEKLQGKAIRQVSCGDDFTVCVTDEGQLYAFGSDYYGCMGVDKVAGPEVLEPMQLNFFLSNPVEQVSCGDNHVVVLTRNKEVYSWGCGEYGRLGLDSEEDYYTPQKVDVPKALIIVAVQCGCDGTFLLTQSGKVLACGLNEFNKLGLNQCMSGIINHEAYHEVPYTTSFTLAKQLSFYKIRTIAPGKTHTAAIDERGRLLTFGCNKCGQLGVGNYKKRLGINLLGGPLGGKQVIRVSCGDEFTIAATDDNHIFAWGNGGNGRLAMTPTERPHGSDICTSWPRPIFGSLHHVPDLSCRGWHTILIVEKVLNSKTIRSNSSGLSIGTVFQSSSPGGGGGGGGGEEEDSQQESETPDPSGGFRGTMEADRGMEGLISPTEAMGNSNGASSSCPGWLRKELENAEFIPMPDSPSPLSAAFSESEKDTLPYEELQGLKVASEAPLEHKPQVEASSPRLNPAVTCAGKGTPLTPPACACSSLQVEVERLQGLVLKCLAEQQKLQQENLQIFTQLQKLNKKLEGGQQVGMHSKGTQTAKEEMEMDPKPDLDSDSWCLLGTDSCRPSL
UniProt Q96IV0: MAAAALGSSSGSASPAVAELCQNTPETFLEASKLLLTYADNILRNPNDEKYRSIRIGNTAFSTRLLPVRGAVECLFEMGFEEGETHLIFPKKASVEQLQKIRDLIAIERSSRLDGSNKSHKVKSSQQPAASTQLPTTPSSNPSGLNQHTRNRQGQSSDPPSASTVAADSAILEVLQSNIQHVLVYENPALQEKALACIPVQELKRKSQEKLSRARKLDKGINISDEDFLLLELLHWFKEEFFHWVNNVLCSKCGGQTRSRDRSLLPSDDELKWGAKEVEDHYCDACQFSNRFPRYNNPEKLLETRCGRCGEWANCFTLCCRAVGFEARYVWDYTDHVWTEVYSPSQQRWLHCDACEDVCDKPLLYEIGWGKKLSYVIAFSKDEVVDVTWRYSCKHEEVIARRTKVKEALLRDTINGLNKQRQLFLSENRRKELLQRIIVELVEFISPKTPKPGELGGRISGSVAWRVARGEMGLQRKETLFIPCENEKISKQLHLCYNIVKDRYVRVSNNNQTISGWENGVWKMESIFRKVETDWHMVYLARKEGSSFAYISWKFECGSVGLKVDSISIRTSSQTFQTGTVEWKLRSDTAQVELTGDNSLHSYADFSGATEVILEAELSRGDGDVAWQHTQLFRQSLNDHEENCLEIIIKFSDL
UniProt O75323: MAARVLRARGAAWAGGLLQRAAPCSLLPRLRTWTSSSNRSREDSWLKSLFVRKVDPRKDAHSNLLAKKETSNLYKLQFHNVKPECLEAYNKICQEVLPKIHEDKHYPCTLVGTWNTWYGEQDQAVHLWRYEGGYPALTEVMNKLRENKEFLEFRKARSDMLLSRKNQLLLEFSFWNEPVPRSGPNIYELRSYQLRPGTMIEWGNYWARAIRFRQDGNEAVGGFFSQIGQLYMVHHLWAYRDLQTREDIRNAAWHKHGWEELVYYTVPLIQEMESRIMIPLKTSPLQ

Compound: CC1Cc2ccccc2N1C(=O)C1CCCN(C1)C(=O)CCl (mixture of isomers) [TRIM25 ligand 11 (diastereomer mixture)]
Assay: probe-labelled cysteine peptide fold change vs DMSO (competition) (log2 fold change); higher = less target engagement (more negative = stronger competition)
Details: THP-1, incubation time: 4 h
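Further: competitive chemoproteomic profiling in live THP-1 cells with an iodoacetamide desthiobiotin (IA-DTB) probe, comparing probe-labelled peptide intensities in compound-treated cells against DMSO-treated controls.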

Target | probe-labelled cysteine peptide fold change (10 µM) | probe-labelled cysteine peptide fold change (50 µM)
NDUFB7_P17568_80_RDSFPNFLACK (UniProt P17568) | 0.0829 | 0.0455
NDUFS1_P28331_554_VLFLLGADGGCITR (UniProt P28331) | -0.0537 | 0.0876
NFATC3_Q12968_358_LELCSDDQGSLSPAR (UniProt Q12968) | 0.32 | -0.333
NFATC3_Q12968_6_TTANCGAHDELDFK (UniProt Q12968) | -0.143 | -0.131
NISCH_Q9Y2I1_436_ASEVCLDDTVTTEK (UniProt Q9Y2I1) | -0.0835 | -0.0789
NIPSNAP1_Q9BPW8_106_LHLDEDYPCSLVGNWNTWYGEQDQAVHLWR (UniProt Q9BPW8) | -0.279 | -0.172
NDRG2_Q9UN36_274_CPVMLVVGDQAPHEDAVVECNSK (UniProt Q9UN36) | 0.0756 | -0.0733
NFKB1_P19838_61_YVCEGPSHGGLPGASSEK (UniProt P19838) | -0.0412 | -0.198
NDUFAF4_Q9P032_87_AAETCQEPK (UniProt Q9P032) | -0.0492 | -0.243
NEDD4_P46934_1197_IFDENELELLMCGLGDVDVNDWREHTK (UniProt P46934) | -0.196 | -0.108
NDUFV1_P49821_238_LKPPFPADVGVFGCPTTVANVETVAVSPTICR (UniProt P49821) | -0.0718 | -0.105
NHP2_Q9NX24_98_GIMVLAGDTLPIEVYCHLPVMCEDR (UniProt Q9NX24) | 0.0292 | -0.216
NFX1_Q12986_947+951_LECDEECSALER (UniProt Q12986) | 0.0793 | -0.0501
NDUFS1_P28331_226_MFMSELSGNIIDICPVGALTSK (UniProt P28331) | 0.296 | -0.099
NFS1_Q9Y697_353_HHYPGCINLSFAYVEGESLLMALK (UniProt Q9Y697) | 0.433 | 0.0391
NELFB_Q8WX92_141_ACAVEVK (UniProt Q8WX92) | -0.0244 | 0.159
NFX1_Q12986_951_LECDEECSALER (UniProt Q12986) | -0.212 | 0.109
NFKB1_P19838_87_ICNYVGPAK (UniProt P19838) | -0.0138 | 0.173
NELFCD_Q8IXH7_582_TEGEHDPVTEFIAHCK (UniProt Q8IXH7) | -0.00537 | 0.1
NDUFS1_P28331_64_FCYHER (UniProt P28331) | 0.00835 | 0.0755
NIPBL_Q6KC79_1940_ILNITDVVAACR (UniProt Q6KC79) | -0.0954 | -0.166
NEK9_Q8TD19_556_VLACGLNEFNK (UniProt Q8TD19) | 0.127 | 0.169

Fetched one by one from the list above:
Target | probe-labelled cysteine peptide fold change (10 µM) | probe-labelled cysteine peptide fold change (50 µM)
NELFCD_Q8IXH7_582_TEGEHDPVTEFIAHCK (UniProt Q8IXH7) | -0.00537 | 0.1
NFS1_Q9Y697_353_HHYPGCINLSFAYVEGESLLMALK (UniProt Q9Y697) | 0.433 | 0.0391

The list continues:

Target | probe-labelled cysteine peptide fold change (10 µM) | probe-labelled cysteine peptide fold change (50 µM)
NCOR1_O75376_474_SVPDCVLYYYLTK (UniProt O75376) | -0.036 | 0.104
NDUFB11_Q9NX14_141_EANGLPIMESNCFDPSK (UniProt Q9NX14) | -0.025 | -0.175
NCF2_P19878_514_VFVEDCATTDLESTR (UniProt P19878) | -0.0153 | -0.00506
NDUFA8_P51970_36_AAAHHYGAQCDKPNK (UniProt P51970) | -0.0944 | 0.0873
NIPBL_Q6KC79_1971_ACTQLVDNLVEHILK (UniProt Q6KC79) | -0.0363 | 0.0676
NEK9_Q8TD19_657_VSCGDEFTIAATDDNHIFAWGNGGNGR (UniProt Q8TD19) | 0.0815 | 0.0615
NFKB2_Q00653_250_GGDEVYLLCDK (UniProt Q00653) | 0.0534 | 0.0128
NGLY1_Q96IV0_286_EVEDHYCDACQFSNR (UniProt Q96IV0) | 0.0504 | 0.167
NCOR1_O75376_987_QEQIDLECR (UniProt O75376) | -0.022 | 0.0386
NIPBL_Q6KC79_573_QCNDAPVSVLQEDIVGSLK (UniProt Q6KC79) | -0.195 | -0.268
NELFA_Q9H3P2_44_LCFHGLSSAVK (UniProt Q9H3P2) | -0.091 | 0.126
NIPBL_Q6KC79_2374_MSYQVQQAINTCLKDPVR (UniProt Q6KC79) | -0.203 | -0.443
NFATC2_Q13469_569_IVSLQTASNPIECSQR (UniProt Q13469) | 0.141 | 0.0885
NIPSNAP2_O75323_108_HYPCTLVGTWNTWYGEQDQAVHLWR (UniProt O75323) | 0.25 | 0.102
NDUFV2_P19404_135+140_YHIQVCTTTPCMLR (UniProt P19404) | 0.0444 | -0.234
NCKIPSD_Q9NZQ3_412+429_CYLEELLHILTDADPEVCKK (UniProt Q9NZQ3) | 0.0278 | 0.0531
NF2_P35240_133_IYCPPEASVLLASYAVQAK (UniProt P35240) | 0.127 | -0.109
NGLY1_Q96IV0_484_KETLFIPCENEK (UniProt Q96IV0) | 0.0236 | 0.104
NCL_P19338_543_EALNSCNKR (UniProt P19338) | -0.0452 | -0.103
NDUFA5_Q16718_17_TTGLVGLAVCNTPHER (UniProt Q16718) | -0.202 | -0.304
NFX1_Q12986_295_STCDSENLAVINK (UniProt Q12986) | 0.0624 | -0.0282
NDUFV1_P49821_286_LFNISGHVNHPCTVEEEMSVPLK (UniProt P49821) | 0.121 | -0.203

Record cards, as listed above. Values in the order: probe-labelled cysteine peptide fold change (10 µM)	probe-labelled cysteine peptide fold change (50 µM)
NF2_P35240_133_IYCPPEASVLLASYAVQAK (UniProt P35240) is listed as 0.127	-0.109
NDUFV1_P49821_286_LFNISGHVNHPCTVEEEMSVPLK (UniProt P49821) is listed as 0.121	-0.203

Following part

Target | probe-labelled cysteine peptide fold change (10 µM) | probe-labelled cysteine peptide fold change (50 µM)
NCOA5_Q9HCD5_266_SCTVNIMFGTPQEHR (UniProt Q9HCD5) | 0.209 | 0.267
NIFK_Q9BYG3_269_QPISCVK (UniProt Q9BYG3) | 0.199 | -0.0418
NDUFS1_P28331_564_DCFIIYQGHHGDVGAPIADVILPGAAYTEK (UniProt P28331) | -0.092 | 0.0629
NFX1_Q12986_479_TCECGR (UniProt Q12986) | -0.0168 | 0.212
NCKIPSD_Q9NZQ3_138_QPNGVCR (UniProt Q9NZQ3) | -0.0933 | -0.32
NEU1_Q99519_218_LIVCGHGTLER (UniProt Q99519) | -0.0476 | -0.0493
NFKBIE_O00221_335_HGDTALHVACQR (UniProt O00221) | 0.0384 | 0.0799
NFX1_Q12986_444_NEIPHSCGEVCR (UniProt Q12986) | 0.00232 | 0.118
NIPSNAP2_O75323_85_LQFHNVKPECLEAYNK (UniProt O75323) | -0.125 | -0.0971
NDUFV1_P49821_425_QIEGHTICALGDGAAWPVQGLIR (UniProt P49821) | -0.401 | 0.306
NIN_Q8N4C6_695_EAHHEATCR (UniProt Q8N4C6) | -0.0249 | 0.0749
NDRG1_Q92597_394_SMEVSC (UniProt Q92597) | -0.204 | -0.335
NHP2_Q9NX24_18_IKADPDGPEAQAEACSGER (UniProt Q9NX24) | -0.0829 | -0.247
NF1_P21359_509_LLLCNPR (UniProt P21359) | 0.119 | 0.0231
NFKBIE_O00221_438_MLNGCTPLHLAAGR (UniProt O00221) | -0.159 | -0.0659
NIF3L1_Q9GZT8_213_INLNCTQK (UniProt Q9GZT8) | -0.00901 | 0.186
NIT1_Q86X76_145_IYNCHVLLNSK (UniProt Q86X76) | 0.0692 | 0.166
NCKAP1L_P55160_338_EHVIANSGQFHCQR (UniProt P55160) | 0.0855 | -0.139
NIPBL_Q6KC79_1841_FVLCRPQLAEQYYDMLIER (UniProt Q6KC79) | 0.0142 | 0.22
NDUFS6_O75380_87_VIACDGGGGALGHPK (UniProt O75380) | -0.0355 | -0.0716
NCKIPSD_Q9NZQ3_376_DLSMALPSGQVCHDQQR (UniProt Q9NZQ3) | 0.17 | 0.0042
NDUFA2_O43678_58_ECSDVQPK (UniProt O43678) | -0.154 | -0.288
